Measured values reported in article PMC10754140.

Chains of the proteins cited; added tags and fusions are not shown. Lines headed by an entry give the natural chain unless they say otherwise; changes in a name come on top.
UniProt P23258: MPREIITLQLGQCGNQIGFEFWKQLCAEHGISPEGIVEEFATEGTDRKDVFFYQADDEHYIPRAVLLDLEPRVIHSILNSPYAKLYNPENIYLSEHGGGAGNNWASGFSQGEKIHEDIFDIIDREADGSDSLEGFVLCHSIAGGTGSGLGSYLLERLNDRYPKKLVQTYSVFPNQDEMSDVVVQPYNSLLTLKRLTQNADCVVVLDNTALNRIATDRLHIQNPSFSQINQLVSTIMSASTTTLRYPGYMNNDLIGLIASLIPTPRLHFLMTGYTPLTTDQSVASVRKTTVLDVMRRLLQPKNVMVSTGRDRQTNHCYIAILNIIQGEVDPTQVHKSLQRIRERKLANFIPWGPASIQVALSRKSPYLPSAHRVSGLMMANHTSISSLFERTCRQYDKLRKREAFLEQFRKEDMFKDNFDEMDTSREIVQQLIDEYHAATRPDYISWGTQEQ
UniProt Q9UPN4: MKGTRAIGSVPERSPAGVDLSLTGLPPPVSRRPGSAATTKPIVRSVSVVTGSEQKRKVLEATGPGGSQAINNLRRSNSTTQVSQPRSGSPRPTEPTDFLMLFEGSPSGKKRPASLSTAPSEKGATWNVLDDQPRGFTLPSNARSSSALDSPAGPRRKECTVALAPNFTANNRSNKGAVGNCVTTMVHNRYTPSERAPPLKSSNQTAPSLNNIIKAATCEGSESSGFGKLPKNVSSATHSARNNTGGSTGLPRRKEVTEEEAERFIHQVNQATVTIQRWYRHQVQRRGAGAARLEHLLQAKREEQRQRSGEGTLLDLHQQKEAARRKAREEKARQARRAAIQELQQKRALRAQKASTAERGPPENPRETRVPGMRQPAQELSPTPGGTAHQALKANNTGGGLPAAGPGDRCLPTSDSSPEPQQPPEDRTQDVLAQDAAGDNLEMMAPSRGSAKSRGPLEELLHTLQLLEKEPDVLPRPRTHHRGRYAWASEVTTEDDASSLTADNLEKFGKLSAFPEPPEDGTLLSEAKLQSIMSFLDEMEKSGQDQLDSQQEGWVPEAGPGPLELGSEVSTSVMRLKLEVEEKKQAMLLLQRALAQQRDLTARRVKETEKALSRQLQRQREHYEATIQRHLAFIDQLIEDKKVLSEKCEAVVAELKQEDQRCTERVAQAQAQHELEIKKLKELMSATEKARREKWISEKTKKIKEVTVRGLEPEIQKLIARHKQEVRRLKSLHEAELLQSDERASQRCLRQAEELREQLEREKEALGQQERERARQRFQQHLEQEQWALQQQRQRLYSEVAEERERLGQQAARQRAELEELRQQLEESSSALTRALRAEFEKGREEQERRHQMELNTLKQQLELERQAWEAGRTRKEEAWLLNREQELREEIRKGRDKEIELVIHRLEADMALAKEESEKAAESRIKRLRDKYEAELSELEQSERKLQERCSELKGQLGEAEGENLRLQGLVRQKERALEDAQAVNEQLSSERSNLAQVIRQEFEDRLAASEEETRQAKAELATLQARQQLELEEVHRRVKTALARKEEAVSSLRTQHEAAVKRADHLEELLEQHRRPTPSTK

Legend:
[1] = biological target: γ‐tubulin (human (endogenous in MCF10A)) (UniProt P23258); assay: co-IP; 293T cells transfected with the indicated plasmids; lysis in 20 mM Tris-HCl, 150 mM NaCl, 1 mM EDTA, 1 mM EGTA, 1% NP-40, 2.5 mM sodium pyrophosphate, 10% glycerol, pH 7.5; beads 4 °C 4 h, five washes, immunoblotting
[2] = biological target: T1, OGT, exogenous (GFP‐OGT or HA‐OGT) (UniProt O15294); assay: as above
T1 sequence: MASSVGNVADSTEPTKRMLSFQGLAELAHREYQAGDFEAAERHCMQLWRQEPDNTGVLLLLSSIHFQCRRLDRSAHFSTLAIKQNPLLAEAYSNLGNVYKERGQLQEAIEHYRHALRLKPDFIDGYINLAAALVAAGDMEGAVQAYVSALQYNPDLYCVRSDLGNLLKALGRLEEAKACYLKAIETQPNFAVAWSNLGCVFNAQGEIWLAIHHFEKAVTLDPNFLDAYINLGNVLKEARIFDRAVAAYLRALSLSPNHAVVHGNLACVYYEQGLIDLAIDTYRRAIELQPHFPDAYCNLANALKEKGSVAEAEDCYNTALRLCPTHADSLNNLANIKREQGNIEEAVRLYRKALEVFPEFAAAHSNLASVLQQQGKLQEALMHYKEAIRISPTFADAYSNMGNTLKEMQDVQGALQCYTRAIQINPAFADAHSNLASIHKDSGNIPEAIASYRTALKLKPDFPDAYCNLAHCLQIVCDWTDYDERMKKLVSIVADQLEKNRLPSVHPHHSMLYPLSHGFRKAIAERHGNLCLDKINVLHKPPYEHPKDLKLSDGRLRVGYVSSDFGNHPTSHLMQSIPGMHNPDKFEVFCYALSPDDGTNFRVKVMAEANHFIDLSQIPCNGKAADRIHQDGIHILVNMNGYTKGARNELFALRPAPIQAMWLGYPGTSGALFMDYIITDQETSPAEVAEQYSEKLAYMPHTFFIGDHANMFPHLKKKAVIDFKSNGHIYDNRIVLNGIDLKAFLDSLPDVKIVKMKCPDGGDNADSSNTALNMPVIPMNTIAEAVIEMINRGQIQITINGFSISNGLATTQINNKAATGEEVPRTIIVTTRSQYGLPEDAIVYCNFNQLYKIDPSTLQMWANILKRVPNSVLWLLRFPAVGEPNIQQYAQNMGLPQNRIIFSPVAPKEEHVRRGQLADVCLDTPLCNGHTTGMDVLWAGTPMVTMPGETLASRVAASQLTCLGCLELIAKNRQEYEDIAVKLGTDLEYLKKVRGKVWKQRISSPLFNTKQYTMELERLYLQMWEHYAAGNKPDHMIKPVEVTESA

binding [1]	binding [2]	Substance
binds		GFP‐CEP131‐mutant (five‐site mutant of CEP131) (from UniProt Q9UPN4)
	binds	Flag‐∆N truncation of CEP131 (domain or fragment)

These are yes or no findings as the source states them, for the method shown. Binding seen in cells or lysates may run through a third protein. Binding can be weak; no strength is given. For some assays here: Where a sequence is shown, tags or fusion partners need not be part of it.
